Experiment: Cleavage of sulfonate ester PZBGs and proMMPi by H2O2 (UV-Vis, rate constant, HPLC)
Format: physicochemical
Conditions: 0.05 mM, HEPES pH 7.5, H2O2 18 equiv, 60 min
Protocol: Absorption spectra of compounds were taken on a Perkin-Elmer Lambda 25 UV-Visible Spectrophotometer. To a 1.0 mL solution at 0.05 mM concentration of each compound in HEPES buffer (50 mM, pH 7.5) was added H2O2 (10 μL, 0.09M in HEPES) and absorption spectra were monitored over time at room temperature. Hydrolytic stability was measured by monitoring each sample in HEPES buffer over a 24 hour time period.
The pseudo-first order rate constant was calculated following literature procedure. To a 1.0 mL solution of compounds PZBG-1a, PZBG-1b, PZBG-1e, PZBG-5a, and PZBG-5b in HEPES buffer at 50 μM was added H2O2 to final concentrations of 150 μM, 250 μM, 500 μM, 750 μM, and 900 μM. Spectra were monitored over 15-30 min at room temperature with at least 50 spectra recorded at every concentration. The change in absorption at 298 nm for PZBG-1a and PZBG-1b were monitored, while the change in absorption at 288 nm was recorded for PZBG-1e, and 310 nm for PZBG-5a and PZBG-5b. The rate constant (kobs) was found from the linear slope of ln [(A−AZBG)/(Ao−AZBG)] vs. time where AZBG is the absorbance of a 50 μM sample of the ZBG or full-length inhibitor and AO is the initial absorbance of PZBG-1a, PZBG-1b, PZBG-1e, PZBG-5a, and PZBG-5b. The rate of conversion was determined from the slope of the line of kobs vs. [H2O2].
Analytical HPLC was performed on a HP Series 1050 system equipped with a Vydac® C18 reverse phase column (218 TP, 250×4.6 mm, 5 μm). […] Starting with 95% A and 5% B, an […] gradient was run for 15 min to a final solvent mixture of 5% A and 95% B, which was held for 5 min before ramping back down to 95% A and 5% B in 2 min and holding for an additional 4 min. Compounds ZBG-1a and PZBG-1a were prepared in HEPES buffer (50 mM, pH 7.5) at a concentration of 1 mM and retention times were determined. To evaluate cleavage by H2O2, a 1 mM solution of PZBG-1a in HEPES buffer was reacted with a 20-fold excess of H2O2 before analyzing under identical HPLC conditions as before.

SMILES | cleavage of the sulfonate ester protecting group in the presence of H2O2
O=c1ccccn1OS(=O)(=O)c1ccc([N+](=O)[O-])cc1 [PZBG-1c, 2-Oxopyridin-1(2H)-yl 4-nitrobenzenesulfonate] | rapid hydrolysis
Cc1occc(=O)c1OS(=O)(=O)c1ccccc1 [PZBG-2a, 2-Methyl-4-oxo-4H-pyran-3-yl benzenesulfonate] | no cleavage
Cc1c(OS(=O)(=O)c2ccccc2)c(=O)ccn1C [PZBG-3a, 1,2-Dimethyl-4-oxo-1,4-dihydropyridin-3-yl benzenesulfonate] | no cleavage
O=c1cccccc1OS(=O)(=O)c1ccccc1 [PZBG-4a, 7-Oxocyclohepta-1,3,5-trien-1-yl benzenesulfonate] | no cleavage
O=C(NCc1ccc(-c2ccccc2)cc1)c1cccc(=O)n1OS(=O)(=O)c1ccccc1 [PZBG-5a, 6-(([1,1′-Biphenyl]-4-ylmethyl)carbamoyl)-2-Oxopyridin-1(2H)-yl benzenesulfonate] | achieved
O=C(O)c1ccc(S(=O)(=O)On2c(C(=O)NCc3ccc(-c4ccccc4)cc3)cccc2=O)cc1 [PZBG-5b, 4-(((6-(([1,1′-Biphenyl]-4-ylmethyl)carbamoyl)-2-Oxopyridin-1(2H)yl)oxy)sulfonyl)benzoic acid] | achieved
O=C(NCc1ccc(-c2ccccc2)cc1)c1occc(=O)c1OS(=O)(=O)c1ccccc1 [PZBG-6a, 2-(([1,1′-Biphenyl]-4-ylmethyl)carbamoyl)-4-oxo-4H-pyran-3-yl benzenesulfonate] | did not result in cleavage

Experiment: Cleavage of boronic ester/acid protected compounds by H2O2 (UV-Vis, rate constant, HPLC)
Format: physicochemical
Conditions: not given
Protocol: Absorption spectra of compounds B1-B16 were taken on a Perkin-Elmer Lambda 25 UV-visible spectrophotometer. To a 1.0 mL solution at 0.05 mM concentration in HEPES buffer (50 mM, pH 7.5) was added H2O2 (10 uL (0.09 M) in HEPES for compounds B1-B12 and B14-B16, 10 uL (0.9 M) in HEPES for compound B3, and 2.8 uL (0.09 M) in HEPES for compound B13). Spectra were monitored over time at room temperature. Absorption spectra of compounds B17-B21 were taken on a Perkin-Elmer Lambda 25 UV-visible spectrophotometer. To a 1.0 mL solution at 0.05 mM concentration of compounds 1-7 in HEPES buffer (50 mM, pH=7.5) was added H2O2 (10 uL, 0.09 M in HEPES) or KO2 (0.10 mM) with catalase (5 U). Hydrolytic stability was measured by monitoring samples of B19-B21 in HEPES buffer for a 24 h time period. Spectra were monitored over time at room temperature.
The pseudo-first order rate constant was calculated by monitoring the absorption spectra over time in the presence of excess hydrogen peroxide. To a 1.0 mL solution of compounds B1-B3 and B10-B14 in HEPES buffer (50 mM, pH 7.5) at 50 μM was added H2O2 to final concentrations of 150 μM, 250 μM, 500 μM, 750 μM, and 900 μM. Spectra were monitored over 15-30 min at room temperature with at least 50 spectra recorded. The change in absorption at 302 nm for B1-B3, 272 nm for B10, 312 nm for B11, 268 for B12, 306 nm for B13, and 303 nm for B14 were monitored. For compounds B1-B3 and B10-B11, the rate constant (kobs) was found from monitoring the appearance of the monitored absorption peak by plotting the linear slope of ln [(A∞−At)/(A∞)] vs. time (where A∞ is the absorbance of a 50 μM sample of the methyl salicylate for B1-B3, maltol for B10, and 1,2-HOPO for B11). For compounds B12-B14 the rate constant (kobs) was found from monitoring the disappearance of the monitored absorption peak by plotting the linear slope of ln [(A−AZBG)/(A0−AZBG)] vs. time (where AZBG is the absorbance of a 50 μM sample of the ZBG and A0 is the initial absorbance of […]).^3 The rate of conversion was determined from the slope of the line of kobs vs. [H2O2]. The pseudo-first order rate constant was calculated following literature procedure.^[15] To a 1.0 mL solution of compounds B19-B21 in HEPES buffer at 50 μM was added H2O2 to final concentrations of 150 μM, 250 μM, 500 μM, 750 μM, and 900 μM. Spectra were monitored over 15-30 min at room temperature with at least 50 spectra recorded. The change in absorption at 292 nm for B19 and 252 nm for B20 and B21 were monitored. The rate constant (kobs) was found from the linear slope of ln [(A−AZBG)/(A0−AZBG)] vs. time (where AZBG is the absorbance of a 50 μM sample of the ZBG and A0 is the initial absorbance of B19-B21). The rate of conversion was determined from the slope of the line of kobs vs. [H2O2].
Analytical HPLC was performed on a HP Series 1050 system equipped with a Vydac® C18 reverse phase column (218 TP, 250×4.6 mm, 5 μm). […] Starting with 95% A and 5% B, an […] gradient was run for 15 min to a final solvent mixture of 5% A and 95% B, which was held for 5 min before ramping back down to 95% A and 5% B in 2 min and holding for an additional 4 min. Compounds were prepared in HEPES buffer (50 mM, pH 7.5) at a concentration of 1 mM. Retention times of compounds were determined under identical HPLC conditions prior to and after reaction with H2O2. LC-MS(+) was performed on compounds B6, B15 and B16 to confirm cleavage of the boronic ester to the phenolic moiety.

SMILES | excess of H2O2 required for deprotection in a comparable time frame [fold]
COC(=O)c1ccccc1B1OC(C)(C)C(C)(C)O1 [Compound B3, Methyl 2-(4,4,5,5-tetramethyl-1,3,2-dioxaborolan-2-yl)benzoate] | 180

Same assay, conditions: 0.05 mM in HEPES pH 7.5, H2O2 18 eq

SMILES | cleavage of the protecting group / release of the active compound in the presence of H2O2
COC(=O)c1ccccc1SCc1ccc(B2OC(C)(C)C(C)(C)O2)cc1 [Compound B4, Methyl 2-((4-(4,4,5,5-tetramethyl-1,3,2-dioxaborolan-2-yl)benzyl)thio)benzoate] | no cleavage
COC(=O)c1ccccc1NCc1ccc(B2OC(C)(C)C(C)(C)O2)cc1 [Compound B5, Methyl 2-((4-(4,4,5,5-tetramethyl-1,3,2-dioxaborolan-2-yl)benzyl)amino)benzoate] | no formation of 2-aminobenzoate
COC(=O)c1ccc(NCc2ccc(B3OC(C)(C)C(C)(C)O3)cc2)cc1 [Compound B6, Methyl 4-((4-(4,4,5,5-tetramethyl-1,3,2-dioxaborolan-2-yl)benzyl)amino)benzoate] | no formation of 4-aminobenzoate
COC(=O)c1ccc(CNCc2ccc(B3OC(C)(C)C(C)(C)O3)cc2)cc1 [Compound B7, Methyl 4-(((4-(4,4,5,5-tetramethyl-1,3,2-dioxaborolan-2-yl)benzyl)amino)methyl)benzoate] | no cleavage
COC(=O)c1ccc(CNC(=O)OCc2ccc(B3OC(C)(C)C(C)(C)O3)cc2)cc1 [Compound B8, Methyl 4(((((4-(4,4,5,5-tetramethyl-1,3,2-dioxaborolan-2-yl)benzyl)oxy)carbonyl)amino)methyl)benzoate] | desired benzyl amine is released
COC(=O)c1ccccc1CNC(=O)OCc1ccc(B2OC(C)(C)C(C)(C)O2)cc1 [Compound B9, Methyl 2-(((((4-(4,4,5,5-tetramethyl-1,3,2-dioxaborolan-2-yl)benzyl)oxy)carbonyl)amino)methyl)benzoate] | desired benzyl amine is released
CC1(C)OB(c2ccc(CN(c3cccc4cccnc34)S(C)(=O)=O)cc2)OC1(C)C [Compound B15, N-(Quinolin-8-yl)-N-(4-(4,4,5,5-tetramethyl-1,3,2-dioxaborolan-2-yl)benzyl)methanesulfonamide] | did not show cleavage
CC1(C)OB(c2ccc(CONC(=O)c3ccccc3)cc2)OC1(C)C [Compound B16, N-((4-(4,4,5,5-Tetramethyl-1,3,2-dioxaborolan-2-yl)benzyl)oxy)benzamide] | no release of the desired hydroxamic acid ligand
CC1(C)OB(c2ccc(COn3c(C(=O)NCc4ccc(-c5ccccc5)cc4)cccc3=O)cc2)OC1(C)C [Compound B17, N-([1,1′-biphenyl]-4-ylmethyl)-6-oxo-1-((4-(4,4,5,5-tetramethyl-1,3,2-dioxaborolan-2-yl)benzyl)oxy)-1,6-dihydropyridine-2-carboxamide] | confirmed
CC1(C)OB(c2ccc(COc3c(C(=O)NCc4ccc(-c5ccccc5)cc4)occc3=O)cc2)OC1(C)C [Compound B18, N-([1,1′-biphenyl]-4-ylmethyl)-4-oxo-3-((4-(4,4,5,5-tetramethyl-1,3,2-dioxaborolan-2-yl)benzyl)oxy)-4H-pyran-2-carboxamide] | confirmed
CC1(C)OB(c2ccc(COn3ccccc3=O)cc2)OC1(C)C [Compound B19, 1-((4-(4,4,5,5-tetramethyl-1,3,2-dioxaborolan-2-yl)benzyl)oxy)pyridin-2(1H)-one] | clean conversion
